Here are results for two molecules from patent US20220018857A1.

By UniProt entry, the sequences of proteins in these tests, tags left out. Where a name states a change or a piece, a line headed by the entry shows the natural chain unless it says otherwise.
UniProt P10636: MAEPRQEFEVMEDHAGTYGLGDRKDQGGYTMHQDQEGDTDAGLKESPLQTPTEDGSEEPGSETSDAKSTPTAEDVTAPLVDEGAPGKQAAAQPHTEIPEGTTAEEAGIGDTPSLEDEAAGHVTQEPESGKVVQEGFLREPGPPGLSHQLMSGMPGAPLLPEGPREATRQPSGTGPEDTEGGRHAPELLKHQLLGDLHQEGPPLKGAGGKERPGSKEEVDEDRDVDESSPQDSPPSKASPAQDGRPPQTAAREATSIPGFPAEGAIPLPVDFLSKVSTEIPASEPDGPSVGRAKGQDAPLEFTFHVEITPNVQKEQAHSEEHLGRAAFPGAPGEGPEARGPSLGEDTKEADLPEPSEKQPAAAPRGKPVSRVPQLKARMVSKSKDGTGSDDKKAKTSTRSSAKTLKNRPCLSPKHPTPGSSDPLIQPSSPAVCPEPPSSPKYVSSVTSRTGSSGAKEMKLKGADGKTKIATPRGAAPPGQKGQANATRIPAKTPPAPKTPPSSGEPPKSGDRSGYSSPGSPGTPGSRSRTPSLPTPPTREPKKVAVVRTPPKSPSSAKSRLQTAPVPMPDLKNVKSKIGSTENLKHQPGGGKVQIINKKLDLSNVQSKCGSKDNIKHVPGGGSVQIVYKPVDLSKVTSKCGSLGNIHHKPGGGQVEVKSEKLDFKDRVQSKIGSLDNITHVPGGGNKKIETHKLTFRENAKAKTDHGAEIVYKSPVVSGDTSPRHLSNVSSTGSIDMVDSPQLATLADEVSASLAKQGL

These are yes or no findings as the source states them, for the method shown. Some entries that bind do so weakly or less than the wild type.

The target of this assay is p217+tau peptides (human tau protein or tau fragment phosphorylated at residue 217) (human) (UniProt P10636). Nature of the assay: SiMoA 3-step sandwich ELISA, pT3 capture, CSF, serum and plasma. On the technique in general: In an ELISA, binding on a coated surface is turned into a signal by an enzyme label.

B1: pT82 monoclonal antibody (antibody, V domains shown)
VH: EVKLEESGGGLVQPGGSMKLSCVASGFTFSNYWMNWIRQSPEKGLEWVAQIRLQSDNYATRYAESVKGRFTISRDESKTSVYLQMNNLRTEDTGIYYCTGGTTYWGQGTLVTVSA
VL: DIVMTQSQKFMSTSVGDRVSITCKASQNVGTAVAWYQQKPGQSPKLLIYSASIRYTGVPDRFTGSGSGTDFTLTINYMQSEDLADYFCQQFSSYPYTFGGGTKLEIK
For B1, the binding entry is on record as “binds”.

B2: hT43 monoclonal antibody (antibody, V domains shown)
VH: EVKLVESGGDLVKPGGSLKLSCAASGFTFRSYGMSWVRQTPDKRLEWVTTINSDGSYTYYPDSVKGRFTISRDNAKNTLYLQMSSLKSEDTAMYYCAVSWDGAMDYWGQGTSVTVSS
VL: DVLVTQTPLSLPVSLGDQASISCRSSQSILHSNGNTYFEWYLQRPGQSPKLLIYKVSNRFSGVPDRFSGSGSGTDFTLKISRVEAEDLGVYYCFQGSLVPWTFGGGTKLEIK
B2: the binding entry is “binds”.
